The values that follow come from patent US20120294856A1.

By UniProt entry, the sequences of proteins in these tests, tags left out. Where a name states a change or a piece, a line headed by the entry shows the natural chain unless it says otherwise.
UniProt P25445: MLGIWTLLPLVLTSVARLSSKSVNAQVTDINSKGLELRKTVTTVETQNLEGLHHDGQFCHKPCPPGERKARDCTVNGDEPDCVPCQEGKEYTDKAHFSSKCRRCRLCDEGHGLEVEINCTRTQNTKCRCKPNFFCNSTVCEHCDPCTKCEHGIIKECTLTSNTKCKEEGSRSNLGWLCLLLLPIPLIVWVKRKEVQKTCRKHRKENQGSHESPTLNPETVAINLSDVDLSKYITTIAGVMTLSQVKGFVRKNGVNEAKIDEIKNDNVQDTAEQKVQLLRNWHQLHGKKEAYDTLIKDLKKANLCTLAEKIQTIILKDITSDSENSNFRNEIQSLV

For assay [1], the target named is T1, SH2 domain from Sck (Homo sapiens (Human)) (UniProt P98077).
T1 sequence: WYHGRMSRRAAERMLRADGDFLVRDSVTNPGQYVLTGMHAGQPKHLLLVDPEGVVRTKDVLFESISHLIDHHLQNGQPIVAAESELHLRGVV
The assay can be described thus: Transsignal SH2 Domain Array with cell lysates.

The target of assay [2] is T1, SH2 domain from Sck (Homo sapiens (Human)). Briefly: Transsignal SH2 Domain Array with stimulated cell lysates.
Assay [3] deals with CD95 (Homo sapiens (Human)) (UniProt P25445). The assay can be described thus: co-immunoprecipitation from cell lysates, western blot for Sck. On the technique in general: A western blot detects proteins with antibodies after separation by electrophoresis.
The target is the same in assay [4]. The assay can be described thus: co-immunoprecipitation from PANC1 and Colo357 lysates after CD95L-T4 stimulation.
Assay [5] shares this target. Briefly: co-immunoprecipitation from cell lysates.

Results are given in words; binding and its absence hold for the method and conditions named. For some assays here: In cells and extracts the contact can be indirect. Some binding calls cover weakened binding; strength is not graded here.

With “CD95 (from UniProt P25445 26-335) (receptor)”, the binding result in assay [1] and in assay [2] was “binds” throughout.

B1: Sck (SHC (Src homology 2 domain containing) transforming protein 2) (protein)
chain: MTQGPGGRAPPAPPAPPEPEAPTTFCALLPRMPQWKFAAPGGFLGRGPAAARAAGASGGADPQPEPAGPGGVPALAAAVLGACEPRCAAPCPLPALSRCRGAGSRGSRGGRGAAGSGDAAAAAEWIRKGSFIHKPAHGWLHPDARVLGPGVSYVVRYMGCIEVLRSMRSLDFNTRTQVTREAINRLHEAVPGVRGSWKKKAPNKALASVLGKSNLRFAGMSISIHISTDGLSLSVPATRQVIANHHMPSISFASGGDTDMTDYVAYVAKDPINQRACHILECCEGLAQSIISTVGQAFELRFKQYLHSPPKVALPPERLAGPEESAWGDEEDSLEHNYYNSIPGKEPPLGGLVDSRLALTQPCALTALDQGPSPSLRDACSLPWDVGSTGTAPPGDGYVQADARGPPDHEEHLYVNTQGLDAPEPEDSPKKDLFDMRPFEDALKLHECSVAAGVTAAPLPLEDQWPSPPTRRAPVAPTEEQLRQEPWYHGRMSRRAAERMLRADGDFLVRDSVTNPGQYVLTGMHAGQPKHLLLVDPEGVVRTKDVLFESISHLIDHHLQNGQPIVAAESELHLRGVVSREP
With B1, the binding result in assay [3], in assay [4] and in assay [5] was “binds” each time.
